Laboratory results published in paper PMC3528735.
These are yes or no findings as the source states them, for the method shown. For part of these data: In cells and extracts the contact can be indirect. Some entries that bind do so weakly or less than the wild type.

Amino acid sequences for entries named in this document (tags omitted). A change or cut given only in a name is not applied to a line headed by its entry. Chains listed by the source or under a name are the forms on record and can include a tag or linker. Residues count along the entry.
mouse PAC1 (Normal/Hop) isoform, intact PAC1 (P70205, residues 21-496): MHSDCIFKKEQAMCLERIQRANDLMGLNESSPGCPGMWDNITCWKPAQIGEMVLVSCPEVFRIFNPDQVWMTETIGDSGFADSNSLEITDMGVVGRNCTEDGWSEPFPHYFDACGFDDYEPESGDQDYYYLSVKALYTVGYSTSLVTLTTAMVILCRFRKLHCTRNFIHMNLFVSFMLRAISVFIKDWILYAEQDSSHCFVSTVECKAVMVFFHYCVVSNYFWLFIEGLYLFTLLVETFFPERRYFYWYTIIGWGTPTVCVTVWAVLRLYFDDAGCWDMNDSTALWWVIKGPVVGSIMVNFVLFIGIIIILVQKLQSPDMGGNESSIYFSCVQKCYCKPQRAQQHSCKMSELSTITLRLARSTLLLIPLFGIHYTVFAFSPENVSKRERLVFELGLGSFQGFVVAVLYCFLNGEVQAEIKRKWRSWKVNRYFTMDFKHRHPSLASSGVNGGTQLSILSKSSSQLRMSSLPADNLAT
D-PAC1, mutant PAC1 with the deletion of the HSDCIF motif (P70205, form named): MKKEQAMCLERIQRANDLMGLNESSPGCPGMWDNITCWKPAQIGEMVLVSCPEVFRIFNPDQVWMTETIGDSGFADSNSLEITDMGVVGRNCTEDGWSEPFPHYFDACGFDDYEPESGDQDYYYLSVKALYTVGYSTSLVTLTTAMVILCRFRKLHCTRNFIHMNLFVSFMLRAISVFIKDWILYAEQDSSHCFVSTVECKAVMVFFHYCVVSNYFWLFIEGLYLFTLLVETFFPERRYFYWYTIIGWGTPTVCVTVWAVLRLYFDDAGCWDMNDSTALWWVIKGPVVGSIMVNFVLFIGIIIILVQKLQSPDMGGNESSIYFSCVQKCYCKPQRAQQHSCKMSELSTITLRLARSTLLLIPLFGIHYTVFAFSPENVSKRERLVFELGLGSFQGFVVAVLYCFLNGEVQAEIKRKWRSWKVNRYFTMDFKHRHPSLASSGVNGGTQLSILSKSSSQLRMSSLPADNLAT
M-PAC1, mutant PAC1 with the replacement of Cys in the HSDCIF motif with Ala (P70205, form named): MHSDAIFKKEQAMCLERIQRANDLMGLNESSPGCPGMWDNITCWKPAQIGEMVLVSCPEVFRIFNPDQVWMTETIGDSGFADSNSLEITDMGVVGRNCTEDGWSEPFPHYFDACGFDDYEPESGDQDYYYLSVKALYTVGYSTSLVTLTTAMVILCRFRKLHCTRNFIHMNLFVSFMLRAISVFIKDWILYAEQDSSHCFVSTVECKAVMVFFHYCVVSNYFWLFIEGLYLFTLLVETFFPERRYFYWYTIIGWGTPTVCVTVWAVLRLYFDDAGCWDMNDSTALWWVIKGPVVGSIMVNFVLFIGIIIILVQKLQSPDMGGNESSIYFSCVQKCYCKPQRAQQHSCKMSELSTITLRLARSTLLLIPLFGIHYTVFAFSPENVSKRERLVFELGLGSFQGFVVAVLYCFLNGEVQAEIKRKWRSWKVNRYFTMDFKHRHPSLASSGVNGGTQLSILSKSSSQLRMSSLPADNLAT

What was measured:
[1] = target: D-PAC1, mutant PAC1 with the deletion of the HSDCIF motif (mouse) (UniProt P70205); experiment: FRET or BRET; static BRET in CHO cells, Rlu-tagged and YFP-tagged receptor constructs, 1.0 ug DNA/5x10^5 cells divided equally, coelenterazine h 5 uM, 48 h after transfection; some samples incubated with 100 nmol/L HSDCIF for 2 h at 4°C before reading
[2] = target: mouse PAC1 (Normal/Hop) isoform, intact PAC1 (mouse) (UniProt P70205); experiment: as above
[3] = target: D-PAC1, mutant PAC1 with the deletion of the HSDCIF motif (mouse) (UniProt P70205); experiment: non-reducing SDS-PAGE and western blot; cell membrane samples and cell lysates of CHO cells expressing YFP-tagged receptor, loading buffer without reducing agent, boiled, blot with anti-PAC1 antibody; dimer band about 160 kD; one sample from cells incubated with 100 nmol/L HSDCIF for 2 h at 4°C
[4] = target: D-PAC1, mutant PAC1 with the deletion of the HSDCIF motif (mouse) (UniProt P70205); experiment: split reporter; CHO cells co-transfected with equal amounts of Y/N- and Y/C-tagged receptor constructs, read 48 h later by fluorescence microscopy and in a plate counter (ex 480, em 535 nm); some samples incubated with 100 nmol/L HSDCIF for 2 h at 4°C before reading
[5] = target: mouse PAC1 (Normal/Hop) isoform, intact PAC1 (mouse) (UniProt P70205); experiment: as above
[6] = target: D-PAC1, mutant PAC1 with the deletion of the HSDCIF motif (mouse) (UniProt P70205); experiment: FRET or BRET; saturation BRET in CHO cells, constant Rlu-tagged donor (1.0 ug DNA/5x10^5 cells) and increasing YFP-tagged acceptor (0.3 to 6.0 ug); some samples incubated with 100 nmol/L HSDCIF for 2 h at 4°C before reading
[7] = target: mouse PAC1 (Normal/Hop) isoform, intact PAC1 (mouse) (UniProt P70205); experiment: as above
[8] = target: M-PAC1, mutant PAC1 with the replacement of Cys in the HSDCIF motif with Ala (mouse) (UniProt P70205); experiment: FRET or BRET; static BRET in CHO cells, Rlu-tagged and YFP-tagged receptor constructs, 1.0 ug DNA/5x10^5 cells divided equally, coelenterazine h 5 uM, 48 h after transfection; some samples incubated with 100 nmol/L HSDCIF for 2 h at 4°C before reading
[9] = target: M-PAC1, mutant PAC1 with the replacement of Cys in the HSDCIF motif with Ala (mouse) (UniProt P70205); experiment: non-reducing SDS-PAGE and western blot; cell membrane samples and cell lysates of CHO cells expressing YFP-tagged receptor, loading buffer without reducing agent, boiled, blot with anti-PAC1 antibody; dimer band about 160 kD; one sample from cells incubated with 100 nmol/L HSDCIF for 2 h at 4°C
[10] = target: M-PAC1, mutant PAC1 with the replacement of Cys in the HSDCIF motif with Ala (mouse) (UniProt P70205); experiment: split reporter; CHO cells co-transfected with equal amounts of Y/N- and Y/C-tagged receptor constructs, read 48 h later by fluorescence microscopy and in a plate counter (ex 480, em 535 nm); some samples incubated with 100 nmol/L HSDCIF for 2 h at 4°C before reading
[11] = target: M-PAC1, mutant PAC1 with the replacement of Cys in the HSDCIF motif with Ala (mouse) (UniProt P70205); experiment: FRET or BRET; saturation BRET in CHO cells, constant Rlu-tagged donor (1.0 ug DNA/5x10^5 cells) and increasing YFP-tagged acceptor (0.3 to 6.0 ug); some samples incubated with 100 nmol/L HSDCIF for 2 h at 4°C before reading
[12] = target: mouse PAC1 (Normal/Hop) isoform, intact PAC1 (mouse) (UniProt P70205); experiment: non-reducing SDS-PAGE and western blot; cell membrane samples and cell lysates of CHO cells expressing YFP-tagged receptor, loading buffer without reducing agent, boiled, blot with anti-PAC1 antibody; dimer band about 160 kD; one sample from cells incubated with 100 nmol/L HSDCIF for 2 h at 4°C

binding [1]	binding [2]	binding [3]	binding [4]	binding [5]	binding [6]	binding [7]	binding [8]	binding [9]	binding [10]	binding [11]	binding [12]	Substance
no binding	no binding	no binding	no binding	no binding	no binding	no binding	–	–	–	–	–	D-PAC1, mutant PAC1 with the deletion of the HSDCIF motif (from UniProt P70205 21-496) (receptor)
–	no binding	–	–	no binding	–	no binding	no binding	no binding	no binding	no binding	–	M-PAC1, mutant PAC1 with the replacement of Cys in the HSDCIF motif with Ala (from UniProt P70205 21-496) (receptor)
–	binds	–	–	binds	–	binds	–	–	–	–	binds	mouse PAC1 (Normal/Hop) isoform, intact PAC1 (from UniProt P70205 21-496) (receptor)
